Experimental data: paper PMC12568504
Results are given in words; binding and its absence hold for the method and conditions named. In cells and extracts the contact can be indirect. Some results given as binding are weak or reduced against the parent protein; the word gives no strength.

Chains of the proteins cited; added tags and fusions are not shown.
UniProt P25106: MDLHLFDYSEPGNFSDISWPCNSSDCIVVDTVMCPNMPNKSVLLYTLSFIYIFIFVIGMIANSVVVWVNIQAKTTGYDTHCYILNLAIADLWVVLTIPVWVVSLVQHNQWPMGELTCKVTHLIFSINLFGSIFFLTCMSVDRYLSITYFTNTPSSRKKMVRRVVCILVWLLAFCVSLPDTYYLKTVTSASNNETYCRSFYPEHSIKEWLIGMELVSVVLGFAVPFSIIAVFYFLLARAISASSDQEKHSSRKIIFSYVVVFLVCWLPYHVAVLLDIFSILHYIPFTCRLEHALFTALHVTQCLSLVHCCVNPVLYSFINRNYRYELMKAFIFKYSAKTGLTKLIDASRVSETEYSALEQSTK
UniProt P37802: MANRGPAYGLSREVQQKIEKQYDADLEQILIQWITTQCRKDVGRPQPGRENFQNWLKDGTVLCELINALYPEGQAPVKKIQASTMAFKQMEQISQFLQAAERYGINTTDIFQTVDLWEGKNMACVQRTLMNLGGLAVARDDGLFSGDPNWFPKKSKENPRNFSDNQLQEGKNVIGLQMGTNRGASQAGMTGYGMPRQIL

Molecular target: CXCR7 (human (endogenous in TPC-1)) (UniProt P25106)
Assay: co-IP; TPC-1 total protein extract in IP lysis buffer; 1 ug CXCR7 antibody at 4 C overnight, protein A/G agarose beads 2 h at 4 C; IgG as negative control; Western blot for TAGLN2 and CXCR7

For “TAGLN2 (Transgelin-2) (from UniProt P37802 1-199)”, the binding was “binds”.
